In PubChem BioAssay AID330 (DTP/NCI, 2004):
The list does not hold the whole screen: it is rich in T/C values a quarter to a half above the control, in often repeated tests (any T/C) and in doses without a T/C. Further doses and runs are listed elsewhere. T/C is the treated group as % of the vehicle group. Some doses have a count of surviving animals in place of a T/C: the source holds a T/C of zero for them, seemingly a mark for toxic or unscored doses. Some survivor counts are full or nearly so, which does not show that the dose was tolerated: survival well below the control is almost never listed, so the zero probably covers shortened survival too. Survivors were counted at the toxicity check, usually on the fifth day, unless a day is given; later deaths do not show. Schedule codes are those of the source, taken here to give the interval after Q, in days (D) or hours (H), and the number of doses after X. Some molecules as drawn cover several salts, stereoisomers or complexes of the source; a dose is that of the sample tested. Where survival is the endpoint, this PubChem deposit counts one and a half times the control or more as active, and values a quarter to a half above the control carry no call in these data; other NCI protocols may use other cut-offs. Some entries hold several experiments; the results are listed from low to high.

System: P388 leukemia ip, CD2F1 mice, survival T/C
Experiment: NCI In Vivo Anticancer Drug Screen. Data for tumor model P388 Leukemia (intraperitoneal) in CD2F1 (CDF1) mice
Conditions: T/C endpoint: median survival time, higher T/C = longer survival
[1] = dose: 200.0 mg/kg/injection, schedule: Q01DX009 (ip), vehicle: saline with Tween-80
[2] = dose: 400.0 mg/kg/injection, schedule: Q04DX003 (ip), vehicle: saline with Tween-80
[3] = dose: 50.0 mg/kg/injection, schedule: Q01DX009 (ip), vehicle: saline with Tween-80
[4] = dose: 100.0 mg/kg/injection, schedule: Q01DX009 (ip), vehicle: saline
[5] = dose: 200.0 mg/kg/injection, schedule: Q01DX009 (ip), vehicle: saline

Q: Which results are given for `COc1cc2c(cc1OC)C13CCN4CC5=CCOC6CC(=O)N2C1C6C5CC43` (centres undefined) (tested in a mixture with another compound)?
A: survivor count (dose: 100.0 mg/kg/injection, schedule: Q04DX003 (ip), vehicle: saline with Tween-80): 3 of 6; survivor count [1]: 2 of 6; survivor count (dose: 200.0 mg/kg/injection, schedule: Q04DX003 (ip), vehicle: saline with Tween-80): 0 of 6; survivor count [2]: 1 of 6

Q: With `CN1C(=O)N(C)C2(C#N)CC2([N+](=O)[O-])C1=O` (centres undefined) as the compound, how does the survivor count [3] read?
A: 0 of 6

Q: And the survivor count (dose: 100.0 mg/kg/injection, schedule: Q01DX009 (ip), vehicle: saline with Tween-80)?
A: 0 of 6

Q: And the survivor count [1]?
A: 0 of 6

Q: What does the source list for `COc1cccc2c1C(=O)c1c(O)c3c(c(O)c1C2=O)C[C@@](O)(C(C)=O)C[C@@H]3OC1CC(N=C(N)CCSSCCC(N)=NC2CC(O[C@H]3C[C@](O)(C(C)=O)Cc4c(O)c5c(c(O)c43)C(=O)c3c(OC)cccc3C5=O)OC(C)C2O)C(O)C(C)O1` (some centres undefined)?
A: T/C (dose: 12.5 mg/kg/injection, schedule: Q04DX003 (ip), vehicle: distilled water + Tween-80): 135 % of control; T/C (dose: 25.0 mg/kg/injection, schedule: Q04DX003 (ip), vehicle: distilled water + Tween-80): 134 % of control; T/C (dose: 50.0 mg/kg/injection, schedule: Q04DX003 (ip), vehicle: distilled water + Tween-80): 141 % of control

Q: For `c1c[nH]cn1`, which survivor count [4] is on record?
A: 5 of 6

Q: And the survivor count [5]?
A: 6 of 6

Q: `S=c1[nH]nc(NC2CCCCC2)s1` was tested. Which survivor count [2] did it give?
A: 0 of 6

Q: Which T/C [3] does the source give for `COc1cccc(CCl)c1` here?
A: 125 and 131 % of control

Q: Which survivor count (dose: 25.0 mg/kg/injection, schedule: Q01DX009 (ip), vehicle: distilled water + Tween-80) does the source give for `Cc1ccc2c(c1)C(=S)NC(=O)C2` here?
A: 4 of 4

Q: What does the source list for `COC(=O)/C=C(\NC1CC(OC2C[C@](O)(C(C)=O)Cc3c(O)c4c(c(O)c32)C(=O)c2c(OC)cccc2C4=O)OC(C)C1O)C(=O)OC` (some centres undefined)?
A: T/C (dose: 25.0 mg/kg/injection, schedule: Q04DX003 (ip), vehicle: saline with Tween-80): 138 % of control; T/C (dose: 50.0 mg/kg/injection, schedule: Q04DX003 (ip), vehicle: saline with Tween-80): 147 and 148 % of control

Q: `COC(=O)C(NC(=O)C(CO)N1C(=O)c2ccccc2C1=O)c1ccccc1` (centres undefined) was tested. Which survivor count (dose: 200.0 mg/kg/injection, schedule: Q01DX005 (ip), vehicle: saline with Tween-80) did it give?
A: 6 of 6

Q: How did the survivor count (dose: 50.0 mg/kg/injection, schedule: Q04DX002 (ip), vehicle: saline with Tween-80) turn out when `COCn1cc(C(N)=O)c(=O)c2c(N)nc(SC)nc21` was run?
A: 6 of 6

Q: What about the survivor count (dose: 100.0 mg/kg/injection, schedule: Q04DX002 (ip), vehicle: saline with Tween-80) of the same compound?
A: 6 of 6

Q: How did the survivor count (dose: 60.0 mg/kg/injection, schedule: Q01DX005 (ip), vehicle: Klucel (hydroxypropylcellulose) (HPC)) turn out when `Fc1ccccc1N=Cc1ccc(C=Nc2ccccc2F)cc1` was run?
A: 5 of 6

Q: What about the survivor count (dose: 120.0 mg/kg/injection, schedule: Q01DX005 (ip), vehicle: Klucel (hydroxypropylcellulose) (HPC)) of the same compound?
A: 6 of 6

Q: What about the survivor count (dose: 240.0 mg/kg/injection, schedule: Q01DX005 (ip), vehicle: Klucel (hydroxypropylcellulose) (HPC)) of the same compound?
A: 5 of 6

Q: How did the survivor count (dose: 6.25 mg/kg/injection, schedule: Q01DX005 (ip), vehicle: Klucel (hydroxypropylcellulose) (HPC)) turn out when `CN=C(c1ccc(NC(=O)c2cccc(C(=O)Nc3ccc(C(=NC)N(C)C4CCCCC4)cc3)c2)cc1)N(C)C1CCCCC1` was run?
A: 0 of 6

Q: What about the survivor count (dose: 6.25 mg/kg/injection, schedule: Q01DX005 (ip), vehicle: saline) of the same compound?
A: 1 of 6

Q: What about the survivor count (dose: 12.5 mg/kg/injection, schedule: Q01DX005 (ip), vehicle: saline) of the same compound?
A: 0 of 6

Q: And the survivor count (dose: 25.0 mg/kg/injection, schedule: Q01DX005 (ip), vehicle: saline)?
A: 0 of 6

Q: What about the survivor count (dose: 50.0 mg/kg/injection, schedule: Q01DX005 (ip), vehicle: saline) of the same compound?
A: 0 of 6

Q: What about the survivor count (dose: 100.0 mg/kg/injection, schedule: Q01DX005 (ip), vehicle: saline) of the same compound?
A: 0 of 6

Q: What about the survivor count (dose: 200.0 mg/kg/injection, schedule: Q01DX005 (ip), vehicle: saline) of the same compound?
A: 0 of 6

Q: How did the T/C (dose: 25.0 mg/kg/injection, schedule: Q01DX009 (ip), vehicle: saline + alcohol) turn out when `CSc1c(Cl)cc(Cl)cc1C(=O)O` was run?
A: 125 % of control

Q: How did the survivor count (dose: 0.78 mg/kg/injection, schedule: Q01DX009 (ip), vehicle: saline) turn out when `CN(C)c1ccc(N=O)cc1` was run?
A: 6 of 6

Q: Which results are given for `CONc1ccn(C2OC(CO)C(O)C2O)c(=O)n1` (centres undefined)?
A: T/C [4]: 127 % of control; T/C [5]: 126 and 133 % of control
